This data set concerns the target KLF2 (UniProt Q60843). Nature of the data set: EMSA. Conditions: 10 mM Tris, 50 mM KCl, 1 mM DTT, 10 mM ZnCl2, pH and binding temperature not stated, antibody preincubation 4 C 30 min.

By UniProt entry, the sequences of proteins in these tests, tags left out. Where a name states a change or a piece, a line headed by the entry shows the natural chain unless it says otherwise.
UniProt Q60843: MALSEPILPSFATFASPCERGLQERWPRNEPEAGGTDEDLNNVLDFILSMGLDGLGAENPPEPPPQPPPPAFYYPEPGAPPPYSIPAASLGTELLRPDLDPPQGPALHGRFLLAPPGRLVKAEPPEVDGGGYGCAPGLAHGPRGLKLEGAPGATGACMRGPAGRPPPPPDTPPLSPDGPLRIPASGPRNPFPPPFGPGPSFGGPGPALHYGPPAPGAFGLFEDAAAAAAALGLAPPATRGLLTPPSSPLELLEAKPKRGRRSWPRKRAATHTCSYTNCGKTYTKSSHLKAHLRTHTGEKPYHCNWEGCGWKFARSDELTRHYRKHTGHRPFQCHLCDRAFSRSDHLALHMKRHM

Construct, isoform or probe ends are uncertain for at least one entry. Results from cells or extracts need not show a direct contact.

As for “GAGGGGAAAGGTAGGAGTTGGAGGGGAAAGGTAGGAGTTG (double strand) [SCAP probe 20*2]”, where the note is “two shifted bands, protein in an …”, the binding result is “binds”.

As to “GGCGGAGCGGGAGGGGAAAGGTAGGAGTTGAGAGGTGAAG (double strand) [SCAP probe 40*1]”, where the note is “one shifted band, protein in an extract”, the binding result is listed as “binds”.

Values taken from PMC10805670.
